From patent US20040053234A1, “Polynucletides that control delta-6 desaturase genes and methods for identifying compounds for modulating delta-6 desaturase” (priority 2000, published 2004)

Key:
[1] = test system: whole cells of transformed Saccharomyces cerevisiae; test: O.D.600 and substrate radioactivity recovered in whole yeast cells; settings: hD6D-1 whole cells
Experimental: Transformed Saccharomyces cerevisiae pTh5002.1 with V5/6xHis tags were incubated in a 125 ml Erlenmeyer flask containing 9 ml of modified SC-U medium with 1% tergitol (O.D.6000.4, approximately 3.2×10^6 cells) and 200 μl of 7, 14 or 28 mM n-propyl gallate in ethanol. After 1 h incubation in an orbital incubator at 270 rpm and 30° C., 1 μCi of potassium salts of [1-^14C]-linoleic or [1-^14C]-alpha-linolenic acids (dissolved in modified SC-U medium and 1% tergitol) were added to the cell suspension to a final concentration of 2 μM. After 5 h incubation with the inhibitor, cells reached the log phase and the transgene expression was induced with the addition of 1 ml of galactose to a final concentration of 2%.

[2] = test system: spheroplasts of transformed Saccharomyces cerevisiae; test: O.D.600 and substrate radioactivity recovered in spheroplasts (cytotoxicity, uptake); assay type: cell-based; settings: for % of [1-14C]-ALA Recovered in Cells: hD6D-1 spheroplasts; for % of [1-14C]-LA Recovered in Cells: rD6D-1 spheroplasts
Description: Total lipids were extracted as described below.

Structure (SMILES): CCCOC(=O)c1cc(O)c(O)c(O)c1 [n-propyl gallate, Propyl ester of 3,4,5-trihydroxybenzoic acid]
- % of [1-14C]-ALA Recovered in Cells ([1]; inhibitor 7 mM): 2.3%
- % of [1-14C]-ALA Recovered in Cells ([1]; inhibitor 14 mM): 2.4%
- % of [1-14C]-ALA Recovered in Cells ([2]; inhibitor 0.7 mM): 46.5%
- % of [1-14C]-ALA Recovered in Cells ([2]; inhibitor 1.4 mM): 36.3%
- % of [1-14C]-ALA Recovered in Cells ([2]; inhibitor 2.8 mM): 39.0%
- % of [1-14C]-ALA Recovered in Cells ([2]; inhibitor 5.6 mM): 34.9%
- % of [1-14C]-ALA Recovered in Cells ([2]; inhibitor 14.1 mM): 17.6%
- % of [1-14C]-LA Recovered in Cells ([2]; inhibitor 0.7 mM): 13.6%
- % of [1-14C]-LA Recovered in Cells ([2]; inhibitor 1.4 mM): 16.7%
- % of [1-14C]-LA Recovered in Cells ([2]; inhibitor 2.8 mM): 16.1%
- % of [1-14C]-LA Recovered in Cells ([2]; inhibitor 5.6 mM): 14.8%
- % of [1-14C]-LA Recovered in Cells ([2]; inhibitor 14.1 mM): 5.1%
